± gives the standard deviation of the averaged measurements. The reference is the same well before dosing, and untreated signal decays as well.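 Labels refer to human fibroblasts, largely primary: uterine (C12385, HUF), lung (H6013), bone (Hs27A), adrenal (HADF), skin (WS1), plus mammary HMF and breast cancer-associated Hs343T. Cancer lines are basal-like or mesenchymal-like triple-negative breast cancer. The paper counts as hits responses shifting over 3x the replicate standard deviation. The tissue of the other fibroblasts is not given here.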
System: BT20
Assay: relative JC-1 red fluorescence (viability) vs pre-drug, coculture with fibroblast (fraction); higher = more viable cancer cells
Procedure: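 JC-1 labelled TNBC cells cocultured 1:1 (1,500 cells each) with CellTrace Violet stained primary or stromal fibroblasts in 384-well plates in FluoroBrite medium, treated with one of 42 anticancer drugs at 0.1, 1, 10 or 100 uM. JC-1 red fluorescence (mitochondrial integrity in cancer cells only) was read by plate reader every 8 h for 72 h. Values are normalised to each well's pre-drug value. The stock of one drug was tenfold lower, so its dose labels may be too high.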

CCN(CC)CCNC(=O)c1c(C)[nH]c(/C=C2\C(=O)Nc3ccc(F)cc32)c1C [Sunitinib]
relative JC-1 red fluorescence
Conditions	8 h	16 h	24 h	32 h	40 h	48 h	56 h	64 h	72 h
0.1 µM, coculture fibroblast: C12385	0.8559 ± 0.0028	0.808 ± 0.0083	0.79114 ± 0.00077	0.7383 ± 0.0023	0.675 ± 0.0037	0.657 ± 0.002	0.6427 ± 0.0027	0.6397 ± 0.0036	0.6246 ± 0.0044
0.1 µM, coculture fibroblast: H6013	0.945 ± 0.05	0.809 ± 0.1	0.783 ± 0.11	0.851 ± 0.026	0.746 ± 0.07	0.785 ± 0.012	0.76 ± 0.019	0.848 ± 0.13	0.835 ± 0.13
0.1 µM, coculture fibroblast: H6019	0.8635 ± 0.0013	0.823 ± 0.0084	0.82 ± 0.04	0.768 ± 0.034	0.724 ± 0.048	0.702 ± 0.052	0.671 ± 0.064	0.64 ± 0.069	0.619 ± 0.077
0.1 µM, coculture fibroblast: H6076	0.833 ± 0.15	0.9068 ± 0.0057	0.854 ± 0.026	0.836 ± 0.033	0.813 ± 0.084	0.794 ± 0.091	0.792 ± 0.12	0.789 ± 0.13	0.783 ± 0.13
0.1 µM, coculture fibroblast: H6231	0.833 ± 0.067	0.899 ± 0.014	0.835 ± 0.024	0.776 ± 0.028	0.727 ± 0.029	0.677 ± 0.026	0.643 ± 0.039	0.613 ± 0.033	0.592 ± 0.042
0.1 µM, coculture fibroblast: HADF	0.956 ± 0.035	0.914 ± 0.06	0.886 ± 0.046	0.839 ± 0.069	0.823 ± 0.07	0.787 ± 0.062	0.773 ± 0.053	0.757 ± 0.049	0.732 ± 0.046
0.1 µM, coculture fibroblast: HCFa	0.9096 ± 0.0011	0.87769 ± 0.00074	0.863 ± 0.026	0.799 ± 0.027	0.756 ± 0.045	0.723 ± 0.058	0.699 ± 0.073	0.682 ± 0.077	0.647 ± 0.082
0.1 µM, coculture fibroblast: HCPF	0.915 ± 0.021	0.958 ± 0.032	0.92 ± 0.046	0.885 ± 0.08	0.869 ± 0.13	0.838 ± 0.16	0.812 ± 0.17	0.82 ± 0.19	0.794 ± 0.21
0.1 µM, coculture fibroblast: HHSteC	0.924 ± 0.012	0.908 ± 0.017	0.916 ± 0.039	0.849 ± 0.043	0.827 ± 0.053	0.798 ± 0.071	0.788 ± 0.077	0.769 ± 0.096	0.746 ± 0.092
0.1 µM, coculture fibroblast: HMF	0.976 ± 0.021	0.904 ± 0.035	0.811 ± 0.046	0.761 ± 0.045	0.732 ± 0.045	0.689 ± 0.044	0.657 ± 0.054	0.627 ± 0.063	0.603 ± 0.065
0.1 µM, coculture fibroblast: HPFa	0.902 ± 0.024	0.867 ± 0.036	0.876 ± 0.042	0.814 ± 0.057	0.819 ± 0.08	0.789 ± 0.094	0.774 ± 0.11	0.762 ± 0.12	0.724 ± 0.12
0.1 µM, coculture fibroblast: HUF	0.89 ± 0.052	0.797 ± 0.061	0.747 ± 0.09	0.657 ± 0.083	0.607 ± 0.075	0.569 ± 0.058	0.545 ± 0.061	0.525 ± 0.051	0.512 ± 0.043
0.1 µM, coculture fibroblast: Hs5	0.837 ± 0.2	0.9192 ± 0.0087	0.872 ± 0.02	0.842 ± 0.024	0.8 ± 0.039	0.768 ± 0.034	0.752 ± 0.049	0.725 ± 0.048	0.708 ± 0.046
0.1 µM, coculture fibroblast: Hs27A	0.904 ± 0.032	0.849 ± 0.13	0.917 ± 0.076	0.902 ± 0.12	0.854 ± 0.11	0.841 ± 0.089	0.819 ± 0.091	0.787 ± 0.088	0.741 ± 0.086
0.1 µM, coculture fibroblast: Hs343T	0.911 ± 0.052	0.878 ± 0.049	0.794 ± 0.038	0.742 ± 0.04	0.698 ± 0.031	0.661 ± 0.028	0.623 ± 0.024	0.603 ± 0.027	0.582 ± 0.024
0.1 µM, coculture fibroblast: WS1	0.842 ± 0.013	0.789 ± 0.01	0.767 ± 0.022	0.712 ± 0.04	0.65 ± 0.039	0.633 ± 0.039	0.616 ± 0.048	0.606 ± 0.044	0.601 ± 0.049
1 µM, coculture fibroblast: C12385	0.872 ± 0.013	0.818 ± 0.0014	0.787 ± 0.017	0.738 ± 0.034	0.685 ± 0.044	0.655 ± 0.041	0.634 ± 0.041	0.615 ± 0.038	0.602 ± 0.028
1 µM, coculture fibroblast: H6013	0.9082 ± 0.0025	0.875 ± 0.022	0.846 ± 0.045	0.806 ± 0.057	0.782 ± 0.068	0.769 ± 0.08	0.767 ± 0.082	0.748 ± 0.087	0.732 ± 0.085
1 µM, coculture fibroblast: H6019	0.8456 ± 0.0021	0.7989 ± 0.0027	0.7802 ± 0.0024	0.7122 ± 0.0037	0.656 ± 0.015	0.637 ± 0.021	0.595 ± 0.029	0.564 ± 0.024	0.541 ± 0.021
1 µM, coculture fibroblast: H6076	0.9722 ± 0.007	0.923 ± 0.0096	0.86 ± 0.0062	0.8258 ± 0.0019	0.8119 ± 0.0069	0.7858 ± 0.0062	0.769 ± 0.0077	0.7595 ± 0.004	0.7405 ± 0.0032
1 µM, coculture fibroblast: H6231	0.832 ± 0.12	0.9244 ± 0.0023	0.855 ± 0.014	0.776 ± 0.023	0.72 ± 0.019	0.667 ± 0.019	0.627 ± 0.02	0.592 ± 0.033	0.564 ± 0.041
1 µM, coculture fibroblast: HADF	0.906 ± 0.11	0.907 ± 0.028	0.952 ± 0.048	0.869 ± 0.084	0.866 ± 0.097	0.902 ± 0.045	0.939 ± 0.015	0.94 ± 0.037	0.951 ± 0.027
1 µM, coculture fibroblast: HCFa	0.9702 ± 0.0063	0.885 ± 0.1	0.879 ± 0.081	0.847 ± 0.059	0.871 ± 0.037	0.792 ± 0.13	0.807 ± 0.1	0.788 ± 0.11	0.812 ± 0.039
1 µM, coculture fibroblast: HCPF	0.9126 ± 0.0032	0.981 ± 0.017	0.911 ± 0.0039	0.86183 ± 6.9e-05	0.803 ± 0.011	0.75 ± 0.03	0.707 ± 0.034	0.679 ± 0.043	0.639 ± 0.055
1 µM, coculture fibroblast: HHSteC	0.906 ± 0.021	0.888 ± 0.057	0.878 ± 0.081	0.831 ± 0.1	0.808 ± 0.14	0.779 ± 0.15	0.778 ± 0.17	0.756 ± 0.18	0.732 ± 0.18
1 µM, coculture fibroblast: HMF	0.842 ± 0.2	0.972 ± 0.018	0.91 ± 0.0092	0.86 ± 0.019	0.826 ± 0.032	0.788 ± 0.02	0.751 ± 0.03	0.733 ± 0.035	0.705 ± 0.038
1 µM, coculture fibroblast: HPFa	0.9269 ± 0.0071	0.928 ± 0.019	0.955 ± 0.027	0.896 ± 0.038	0.888 ± 0.041	0.856 ± 0.054	0.849 ± 0.048	0.827 ± 0.06	0.779 ± 0.054
1 µM, coculture fibroblast: HUF	0.909 ± 0.023	0.836 ± 0.027	0.819 ± 0.01	0.7588 ± 0.0032	0.727 ± 0.0073	0.69077 ± 0.00021	0.6844 ± 0.004	0.672 ± 0.0023	0.6599 ± 0.0036
1 µM, coculture fibroblast: Hs5	0.859 ± 0.11	0.934 ± 0.065	0.872 ± 0.046	0.821 ± 0.042	0.776 ± 0.022	0.744 ± 0.0071	0.716 ± 0.025	0.682 ± 0.033	0.643 ± 0.045
1 µM, coculture fibroblast: Hs27A	0.837 ± 0.12	0.7389 ± 0.0064	0.887 ± 0.067	0.881 ± 0.044	0.842 ± 0.035	0.798 ± 0.07	0.869 ± 0.052	0.856 ± 0.082	0.779 ± 0.037
1 µM, coculture fibroblast: Hs343T	0.9855 ± 0.0075	0.9253 ± 0.0083	0.8542 ± 0.0043	0.797 ± 0.011	0.7641 ± 0.0075	0.721 ± 0.0079	0.69 ± 0.0028	0.662 ± 0.015	0.639 ± 0.022
1 µM, coculture fibroblast: WS1	0.8209 ± 0.0057	0.769 ± 0.031	0.743 ± 0.056	0.698 ± 0.063	0.657 ± 0.067	0.638 ± 0.07	0.617 ± 0.071	0.597 ± 0.069	0.581 ± 0.07
